Experimental data taken from article PMC7246762, “Peptide Interference with APP and Tau Association: Relevance to Alzheimer’s Disease Amelioration” (International Journal of Molecular Sciences, 2020).
These are yes or no findings as the source states them, for the method shown.

How the values were obtained:
[1] = target: T1, APP1 (390-412) peptide labelled with rhodamine (human); assay: far-Western, overlay or dot blot; mixtures of a fluorescein-labelled (green) and a rhodamine-labelled (red) peptide spotted on a nitrocellulose membrane; yellow colour read as binding; both purified
T1 sequence (peptide, rhodamine (labelled with rhodamine isothiocyanate; site not stated)): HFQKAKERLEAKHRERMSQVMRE

[2] = target: T2, Tau1 (19-34) peptide labelled with rhodamine (human); assay: as above
T2 sequence (peptide, rhodamine (labelled with rhodamine isothiocyanate; site not stated)): GLGDRKDQGGYTMHQD

B1: APP2 (713-730) peptide labelled with fluorescein (peptide)
peptide: ATVIVITLVMLKKKQYTS
modifications: fluorescein (labelled with fluorescein isothiocyanate; site not stated)
Q: How did the binding [1] turn out when B1 was run?
A: no binding

Q: What about the binding [2] of the same binder?
A: no binding
